Construct, isoform or probe ends are uncertain for at least one entry. At least one result comes from cells or an extract, where the contact may be indirect. Negatives hold for the conditions tested.
Test system: ligand protein in 125I-labeled human serum (counterpart of the SEQ ID NO:4 encoded protein) (Homo sapiens)
Test: binding assay
Conditions: isoG at 23 and 31, isoC at 40; fixed on glass slide; negative control spot on aptamer chip; protein in an extract; protein details: 125I-IODOGEN labeled human serum, SIGMA S7023; single-stranded DNA

TGTAAAACGACGGCCAGTTTCCGGAGTCACGGCTGCGGGCCGTCTGAGCCGTTTGCACGTGTGAAATTGTTATCCGCT [negative control aptamer]
binding result: no binding
